Experimental data taken from publication PMC5345657, “Targeting myeloid differentiation protein 2 by the new chalcone L2H21 protects LPS‐induced acute lung injury” (Journal of Cellular and Molecular Medicine, 2016).
No constants are given. Whether binding was seen depends on the method and setting. Binding seen in cells or lysates may run through a third protein. Some entries that bind do so weakly or less than the wild type.

The chains behind the UniProt entries cited, without tags or fusion partners. Residues count along the entry.
UniProt Q9QUK6, residues 26-835: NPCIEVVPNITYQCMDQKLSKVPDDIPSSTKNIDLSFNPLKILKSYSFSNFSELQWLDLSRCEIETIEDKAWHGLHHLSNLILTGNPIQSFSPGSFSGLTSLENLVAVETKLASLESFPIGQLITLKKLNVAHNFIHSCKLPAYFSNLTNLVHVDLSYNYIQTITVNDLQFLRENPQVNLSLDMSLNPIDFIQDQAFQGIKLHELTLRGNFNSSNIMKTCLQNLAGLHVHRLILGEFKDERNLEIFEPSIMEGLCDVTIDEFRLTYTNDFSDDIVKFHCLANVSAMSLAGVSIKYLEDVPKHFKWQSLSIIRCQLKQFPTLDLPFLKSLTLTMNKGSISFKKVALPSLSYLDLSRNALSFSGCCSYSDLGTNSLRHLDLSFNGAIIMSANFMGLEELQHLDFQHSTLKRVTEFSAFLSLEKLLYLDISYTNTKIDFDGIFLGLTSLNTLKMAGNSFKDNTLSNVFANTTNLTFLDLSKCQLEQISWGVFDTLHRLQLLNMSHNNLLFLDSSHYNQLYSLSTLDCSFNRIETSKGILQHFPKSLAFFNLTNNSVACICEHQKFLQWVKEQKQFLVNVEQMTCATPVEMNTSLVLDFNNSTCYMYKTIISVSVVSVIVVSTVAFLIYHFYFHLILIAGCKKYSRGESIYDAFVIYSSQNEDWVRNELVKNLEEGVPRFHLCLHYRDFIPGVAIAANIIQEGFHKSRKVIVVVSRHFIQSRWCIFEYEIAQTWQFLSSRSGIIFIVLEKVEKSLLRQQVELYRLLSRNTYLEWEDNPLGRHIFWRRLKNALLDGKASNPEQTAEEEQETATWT

Experiments:
[1] = target: T1, myeloid differentiation protein 2 (mouse (endogenous in mouse peritoneal macrophages and mouse lung tissue)) (UniProt Q9JHF9); test: co-IP; mouse peritoneal macrophages pre-treated with L2H21 (10 uM) or DMSO for 30 min, then LPS (1 ug/ml) for 5 min; lysate (400 ug protein) immunoprecipitated with anti-MD-2 antibody at 4 C overnight, protein A+G agarose, blot with anti-TLR4 and anti-MD-2
T1 sequence: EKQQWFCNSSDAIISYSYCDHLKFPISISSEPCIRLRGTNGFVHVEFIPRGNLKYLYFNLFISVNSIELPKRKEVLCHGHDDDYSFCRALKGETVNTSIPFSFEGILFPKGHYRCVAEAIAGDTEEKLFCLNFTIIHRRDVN

[2] = target: T1, myeloid differentiation protein 2 (mouse (endogenous in mouse peritoneal macrophages and mouse lung tissue)); test: co-IP; lung tissue lysates of ALI mice (intratracheal LPS 5 mg/kg, with or without L2H21 20 mg/kg by gavage for 7 days); immunoprecipitated with anti-MD-2 antibody, protein A+G agarose, blot with anti-TLR4 and anti-MD-2

For “toll-like receptor 4 (from UniProt Q9QUK6 26-835)”, the binding [1] was “binds” and the binding [2] was “binds”.
